Experimental data as given in patent US10463764B2, “3D tissue-engineered bone marrow for personalized therapy and drug development” (Washington University, priority 2014, dated 2019).
Some results were stated once for a whole list of compounds, not compound by compound.

Tested on: MM1s cells
Experiment: Drug survival of MM1s cells in mono- or multi-culture in classic 2D cultures and 3DTEBM, by flow cytometry
Type: cell-based
Details: melphalan 1 μM, 24 h
Description: MM1s-GFP cells (30×10^3 cells/well) were cultured in mono-culture or multi-culture conditions [CD138^− stromal cells-DiD (10×10^3 cells/well), HUVECs-DiD (10×10^3 cells/well), and fibronectin 100 ng/ml)] in 3DTEBM and classic 2D cultures. After 2 h gelification of 3DTEBM or adhesion in 2D cultures (cells were culture in 50 μl), 50 ul of RPMI completed media was added on top of 3DTEBM. Then, 50 μl of bortezomib (0-30 nM), carfilzomib (0, 10 nM), or melphalan (0, 1 μM) solutions were added on top of 2D cultures and 3DTEBM for 24 h. Cell proliferation assay was assessed by flow cytometry as previously described. Briefly, drug-media was removed, 3DTEBM were digested and cells of 2D cultures detached by pipetting. Effect of drug treatment in MM1s-GFP cells was measured and normalized to non-treated conditions.
Finally, the effect of increasing concentrations of bortezomib on the survival of MM1s cells grown in mono-culture or multi-culture in 3DTEBM and 2D cultures was measured.

**Q.** What does the source list for N[C@@H](Cc1ccc(N(CCCl)CCCl)cc1)C(=O)O [melphalan]?
**A.** MM cells killed (3DTEBM multi-culture): 5-15%; MM cells killed (classic 2D mono-culture): 40-50%
